Results are given in words; binding and its absence hold for the method and conditions named. In cells and extracts the contact can be indirect. Some binding calls cover weakened binding; strength is not graded here.
Key:
Flag-HDAC4 (human) = Flag-HDAC4 (human) (UniProt P56524); experiment: co-IP; HEK293T cells transfected with the tagged proteins, lysed in IP lysis buffer with PMSF; supernatants incubated with anti-Flag beads at 4 °C; immunoblot (Fig. 8A also with Myc-HDAC4 or TSA)
[1] = molecular target: endogenous HDAC4 in THP-1 cells (human (endogenous in THP-1)) (UniProt P56524); experiment: co-IP; endogenous proteins of THP-1 cells, immunoprecipitated with control or anti-HDAC4 antibodies; immunoblot

By UniProt entry, the sequences of proteins in these tests, tags left out.
UniProt P56524: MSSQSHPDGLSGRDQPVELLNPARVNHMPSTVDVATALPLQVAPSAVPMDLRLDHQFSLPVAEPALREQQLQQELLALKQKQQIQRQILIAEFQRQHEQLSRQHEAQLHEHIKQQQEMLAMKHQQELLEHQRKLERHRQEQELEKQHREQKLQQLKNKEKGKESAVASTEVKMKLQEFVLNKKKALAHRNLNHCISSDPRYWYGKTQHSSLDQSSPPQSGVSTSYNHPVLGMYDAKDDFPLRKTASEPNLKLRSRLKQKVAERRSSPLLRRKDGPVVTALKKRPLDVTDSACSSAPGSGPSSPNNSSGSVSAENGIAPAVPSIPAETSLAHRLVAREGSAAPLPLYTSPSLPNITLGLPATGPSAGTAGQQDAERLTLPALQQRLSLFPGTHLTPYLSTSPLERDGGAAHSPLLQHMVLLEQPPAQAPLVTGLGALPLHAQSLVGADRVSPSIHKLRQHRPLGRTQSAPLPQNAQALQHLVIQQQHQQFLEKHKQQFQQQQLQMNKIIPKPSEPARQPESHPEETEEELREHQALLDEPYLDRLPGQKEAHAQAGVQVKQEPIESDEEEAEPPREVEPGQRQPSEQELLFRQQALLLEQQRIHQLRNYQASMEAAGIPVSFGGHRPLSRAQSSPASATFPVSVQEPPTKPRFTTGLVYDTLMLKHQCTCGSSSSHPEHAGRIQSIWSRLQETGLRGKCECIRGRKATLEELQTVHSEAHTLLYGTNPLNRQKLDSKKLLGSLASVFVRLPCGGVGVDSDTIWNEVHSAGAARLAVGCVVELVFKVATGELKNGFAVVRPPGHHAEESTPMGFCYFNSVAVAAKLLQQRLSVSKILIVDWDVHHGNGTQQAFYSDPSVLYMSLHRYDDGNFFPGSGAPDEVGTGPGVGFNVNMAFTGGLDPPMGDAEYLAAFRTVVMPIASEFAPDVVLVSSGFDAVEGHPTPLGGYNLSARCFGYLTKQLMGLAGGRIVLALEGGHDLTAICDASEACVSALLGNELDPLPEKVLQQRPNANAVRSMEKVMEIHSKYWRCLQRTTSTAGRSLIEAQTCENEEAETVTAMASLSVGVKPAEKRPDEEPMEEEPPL
UniProt P62136: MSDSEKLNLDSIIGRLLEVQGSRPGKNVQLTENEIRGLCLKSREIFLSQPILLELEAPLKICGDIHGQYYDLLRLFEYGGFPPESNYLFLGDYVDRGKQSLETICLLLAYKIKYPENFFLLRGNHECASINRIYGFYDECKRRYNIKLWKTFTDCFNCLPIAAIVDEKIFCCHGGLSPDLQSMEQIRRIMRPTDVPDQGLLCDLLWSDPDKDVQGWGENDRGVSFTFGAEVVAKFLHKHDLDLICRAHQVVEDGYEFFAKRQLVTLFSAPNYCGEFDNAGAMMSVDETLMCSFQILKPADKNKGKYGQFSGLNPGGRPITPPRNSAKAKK
UniProt P36873: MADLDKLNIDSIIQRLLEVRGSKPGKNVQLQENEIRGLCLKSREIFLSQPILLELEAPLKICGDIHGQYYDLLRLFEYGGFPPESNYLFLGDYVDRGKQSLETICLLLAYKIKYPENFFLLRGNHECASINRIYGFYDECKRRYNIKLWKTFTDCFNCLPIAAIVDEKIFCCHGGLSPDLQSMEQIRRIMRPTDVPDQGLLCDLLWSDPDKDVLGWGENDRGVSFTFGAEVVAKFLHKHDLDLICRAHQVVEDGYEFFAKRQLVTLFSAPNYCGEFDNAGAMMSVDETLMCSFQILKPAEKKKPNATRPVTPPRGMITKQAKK

Row | binding (Flag-HDAC4 (human)) | binding [1] | Molecule
1 | binds | – | HA-PP1α (Protein phosphatase 1 catalytic subunit alpha) (from UniProt P62136 1-330) (enzyme)
2 | binds | – | HA-PP1γ (Protein phosphatase 1 catalytic subunit gamma) (from UniProt P36873 1-323) (enzyme)
3 | – | binds | endogenous GSDMD in THP-1 cells (protein, UniProt P57764 1-484) MGSAFERVVRRVVQELDHGGEFIPVTSLQSSTGFQPYCLVVRKPSSSWFWKPRYKCVNLSIKDILEPDAAEPDVQRGRSFHFYDAMDGQIQGSVELAAPGQAKIAGGAAVSDSSSTSMNVYSLSVDPNTWQTLLHERHLRQPEHKVLQQLRSRGDNVYVVTEVLQTQKEVEVTRTHKREGSGRFSLPGATCLQGEGQGHLSQKKTVTIPSGSTLAFRVAQLVIDSDLDVLLFPDKKQRTFQPPATGHKRSTSEGAWPQLPSGLSMMRCLHNFLTDGVPAEGAFTEDFQGLRAEVETISKELELLDRELCQLLLEGLEGVLRDQLALRALEEALEQGQSLGPVEPLDGPAGAVLECLVLSSGMLVPELAIPVVYLLGALTMLSETQHKLLAEALESQTLLGPLELVGSLLEQSAPWQERSTMSLPPGLLGNSWGEGAPAWVLLDECGLELGEDTPHVCWEPQAQGRMCALYASLALLSGLSQEPH

From publication PMC10850491
